PubChem BioAssay AID2685 (National Center for Advancing Translational Sciences (NCATS), 2010)
The other results are listed elsewhere or left out. Shown are side measurements of this screen, not its main read-out; they come without a call. Most of these compounds were active or inconclusive in the main read-out, so they are no random draw. Potencies come from curve fits of mixed quality, noted in brackets.

Experiment: qHTS Assay for Lipid Storage Modulators in Drosophila S3 Cells;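 as to cell number change: cells counted by Cell Tracker Red CMTPX staining in the red channel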
Settings: BODIPY lipid droplet fluorescence, 18-24 h; for cell number change: measured here: cell count max response, cells fed with added oleic acid
In short: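 Drosophila S3 cells got compounds at several concentrations plus oleic acid (400 uM solution). Laser-scanning cytometry with 488 nm excitation read lipid droplets at 500-530 nm and cells at 575-640 nm. Percent activity was relative to 20 uM Triacsin C.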

[1] = measured here: lipid fluorescence (Fed channel) AC50, cells fed with added oleic acid
[2] = measured here: cell number channel AC50, cells fed with added oleic acid

Structure (SMILES)	cell number change [%]	AC50 [1]	AC50 [2]
O=C(NCCc1ccccc1)c1ccc(NC(=O)c2cccnc2)cc1	22.8	29.1 µM [falling, single point]	
CC(=O)N1c2ccc(S(=O)(=O)N3CCCC(C(=O)N4CCC(C)CC4)C3)cc2CC1C (stereo not drawn)	-5.39	0.58 µM [rising, single point]	
CC(=O)Nc1ccc(SCC(=O)OCC(=O)NC(=O)NC2CCCC2)cc1	-4.05	2.06 µM [falling, single point]	
Cc1cc(C(=O)NNc2c(Cl)cccc2Cl)n(C(C)(C)C)n1	37.5	0.58 µM [rising, full curve]	0.366 µM [rising, full curve, poor fit]
Cc1cc2cc(CN(Cc3ccco3)C(=S)NCC3CCCO3)c(=O)[nH]c2cc1C (stereo not drawn)	-9.31	6.51 µM [rising, single point]	2.31 µM [rising, partial curve]
COc1ccccc1CC(NC(C)=O)C(=O)NC1CCN(C(=O)Nc2ccccc2C)CC1 (stereo not drawn)	32.1		16.4 µM [rising, partial curve, poor fit]
COc1cc(/C=C(/C#N)c2ccccc2)ccc1Oc1ccc([N+](=O)[O-])cn1	-0.78	0.58 µM [rising, single point]	
Cc1nn(CC(=O)Nc2cccc(C(F)(F)F)c2)c(=O)c2cccn12	12.4	20.6 µM [falling, single point]	
CCC(=O)c1ccc(OCC(O)CN2CCc3ccccc3C2)cc1 (stereo not drawn)	6.2	0.58 µM [falling, single point]	
CN1CCN(C(=O)c2cc3c(n(-c4ccccc4)c2=O)CC(C)(C)CC3=O)CC1	1.7	0.461 µM [rising, full curve]	
Cc1ccc2c(CC(=O)OCc3nc(N)nc(Nc4ccccc4C)n3)coc2c1	-29.6	0.00461 µM [rising, full curve]	
O=C(C1=C[C@H](c2coc3ccccc3c2=O)C[C@H](OCc2ccc(CO)cc2)O1)N1CCN(Cc2ccccc2)CC1	-14.6	2.31 µM [falling, partial curve, poor fit]	
Cn1c(SCC(=O)Nc2ccc(F)cc2F)nnc1-c1cccnc1			6.51 µM [rising, single point]
CN(C)CCCNc1ccc(S(N)(=O)=O)cc1[N+](=O)[O-]	16.7		6.51 µM [rising, single point]
COc1ccccc1-n1c(SCC(=O)Nc2ccc(C)cc2)nc(O)cc1=O	7.97	2.59 µM [rising, single point]	
Cc1cc2c(NC(=O)Nc3ccc(C(F)(F)F)cc3)cccc2nn1	5.9	3.66 µM [rising, partial curve, poor fit]	
CC(=O)OCCNc1cc(Sc2nc3ccccc3[nH]2)c2nonc2c1[N+](=O)[O-]	-38.7	4.11 µM [falling, full curve]	4.11 µM [falling, full curve]
O=C(NCCN=C1NS(=O)(=O)c2ccccc21)c1ccco1	-84.8	1.84 µM [falling, partial curve]	14.6 µM [falling, partial curve]
O=C(CN1CCCC1c1ccc2c(c1)OCCO2)NC(=O)Nc1ccccc1 (stereo not drawn)	-6.24	0.58 µM [falling, single point]	
CCS(=O)(=O)c1ccc2oc(SCC(=O)NCCc3ccc(OC)cc3)nc2c1	2.19		7.31 µM [falling, partial curve, poor fit]

Grouped by structure: the compounds so far with an NH in an aromatic ring.
Structure (SMILES)	cell number change [%]	AC50 [1]	AC50 [2]
Cc1cc2cc(CN(Cc3ccco3)C(=S)NCC3CCCO3)c(=O)[nH]c2cc1C (stereo not drawn)	-9.31	6.51 µM [rising, single point]	2.31 µM [rising, partial curve]
CC(=O)OCCNc1cc(Sc2nc3ccccc3[nH]2)c2nonc2c1[N+](=O)[O-]	-38.7	4.11 µM [falling, full curve]	4.11 µM [falling, full curve]

Ordered by formula weight (low to high): 3 of the compounds above.
Structure (SMILES)	cell number change [%]	AC50 [1]	AC50 [2]
Cc1ccc2c(CC(=O)OCc3nc(N)nc(Nc4ccccc4C)n3)coc2c1	-29.6	0.00461 µM [rising, full curve]	
Cc1cc2cc(CN(Cc3ccco3)C(=S)NCC3CCCO3)c(=O)[nH]c2cc1C (stereo not drawn)	-9.31	6.51 µM [rising, single point]	2.31 µM [rising, partial curve]
CCS(=O)(=O)c1ccc2oc(SCC(=O)NCCc3ccc(OC)cc3)nc2c1	2.19		7.31 µM [falling, partial curve, poor fit]

(continued)

Structure (SMILES)	cell number change [%]	AC50 [1]	AC50 [2]
CCCC(C)C(=O)Nc1cc([N+](=O)[O-])ccc1Cl (stereo not drawn)		1.46 µM [rising, partial curve]	3.26 µM [rising, partial curve]
CC(C)CNC(=O)c1cccc(NC(=O)COc2ccc([N+](=O)[O-])cc2)c1	1.08	1.46 µM [rising, partial curve]	
Cc1cc(C)cc(N(CC(=O)N2CCC(C)CC2)S(=O)(=O)c2ccccc2)c1	70.1		25.9 µM [rising, single point]
Nc1c(C(O)(C(F)(F)F)C(F)(F)F)cc(C(O)(C(F)(F)F)C(F)(F)F)c2ccccc12	-51.3	9.2 µM [falling, partial curve]	7.31 µM [falling, partial curve]
Cc1nc(-c2ccc(F)cc2)c(CC(=O)Nc2cc(S(=O)(=O)N3CCCCC3)ccc2C)s1	-10.1		
Cc1sc(N)nc1C12CC3CC(CC(C3)C1)C2	-42.4		14.6 µM [falling, partial curve, poor fit]
CC(C)[C@H](NC(=O)OC(C)(C)C)c1nnc(S(=O)(=O)Cc2c(F)cccc2Cl)o1	-90.9	23.1 µM [falling, single point]	16.4 µM [falling, partial curve]
CCCOP(=O)(c1ccc(N(C)C)cc1)C(O)c1cccnc1 (stereo not drawn)	52.1	29.1 µM [rising, single point]	
CC1(C)OC(C)(C)/C(=C/Nc2ccccc2)C1=O	23.2	0.517 µM [rising, partial curve]	
CN1CCCC1CCNc1ccc2oc3ccccc3c(=O)c2c1 (stereo not drawn)	18.1	18.4 µM [rising, partial curve]	
CCN(CC(=O)Nc1ccc2c(c1)OCCO2)C(=O)CC1CCCC1	33.5		32.6 µM [rising, single point]
Cc1cc(OCCn2cc(/C(N)=N/O)c3ccccc32)ccc1Cl	-21	16.4 µM [falling, single point]	
COc1ccc(S(=O)(=O)/N=C2\C=C(Nc3ccc(O)cc3)C(=O)c3ccccc32)cc1	13.5	1.46 µM [falling, full curve]	
Cc1ccc(OCC(=O)Oc2c(C)cccc2C)cc1C	-13.2		
Cc1cc2nc(-c3ccc(SCc4ccccn4)nc3)[nH]c2cc1C			0.82 µM [rising, full curve, poor fit]
Cc1csc(CNc2ncnc3ccc(-c4cccc(Cl)c4)cc23)c1	20.5		
Cc1oc(-c2ccccc2)nc1CS(=O)CC(=O)NC1CCCC1 (stereo not drawn)	-9.22	32.6 µM [rising, single point]	
O=C(CSC1=NCCS1)Nc1cccc2ccccc12			0.0291 µM [rising, full curve, poor fit]
Cc1ccc(S(=O)(=O)N2CCCCC2)cc1NC(=O)c1ccccn1	16.4	4.61 µM [rising, single point]	
O=C(O)CCCCNS(=O)(=O)/C=C/c1ccccc1	-45.2		

Structure (SMILES)	cell number change [%]	AC50 [1]	AC50 [2]
O=c1c2cc(NC(=S)NCCCN3CCC(Cc4ccccc4)CC3)ccc2nc2n1CCCCC2	-1.94	0.146 µM [falling, full curve, poor fit]	
CCOC(=O)C1=C(CSc2nc(-c3ccccc3)ccc2C#N)OC(N)=C(C#N)C1c1cccnc1 (stereo not drawn)			0.92 µM [rising, full curve]
CC(NCCS(=O)(=O)c1ccc(Cl)cc1)c1cccc(Cl)c1 (stereo not drawn)	20.4		
CCOC(=O)c1c(C)[nH]c(C(=O)OCC(=O)N2CCN(S(=O)(=O)c3ccccc3)CC2)c1C	72.8	20.6 µM [rising, partial curve]	2.59 µM [rising, full curve]
O=C(Nc1nc2n(n1)C(c1ccc(Cl)cc1)CC(c1ccc(Cl)cc1)N2)c1ccco1 (stereo not drawn)		0.731 µM [rising, single point]	
O=C(CN(CCc1ccccc1)C(=O)c1csnn1)NC1CCCC1	-5.68	0.82 µM [falling, full curve, poor fit]	
O=C(OCC(=O)N1CCCC1)c1cccc(Br)c1	-9.91		
O=C(CN1C(=O)NC2(CCCCCCC2)C1=O)Nc1ccc(Br)cc1	-8.48	0.58 µM [falling, full curve]	
COc1ccc(NC(=O)COc2ccc3c(c2)CCC3)cc1		5.8 µM [falling, full curve]	
CC(=O)Nc1ccc(S(=O)(=O)NC(C(=O)O)C2=CCC=CC2)cc1 (stereo not drawn)	-36.4		1.64 µM [falling, partial curve, poor fit]
COc1ccc(-n2c(Cc3cccn3C)nnc2SCC(=O)N2CCCc3ccccc32)cc1	117		
O=C(/C=C/Nc1cccc([N+](=O)[O-])c1)c1cccs1	132		32.6 µM [rising, partial curve, poor fit]
Cc1ccc(C(=O)CC(c2cccs2)S(=O)(=O)c2ccc(C)cc2)cc1 (stereo not drawn)	-3.25		
CCOc1ccc(OCC)c(NC(=O)CN2CCC(NC(=O)c3cccc(F)c3)CC2)c1	-0.471		
CC(C)COc1ccc(C(=O)Nc2ccc(SC(F)F)cc2)cc1	11.3	0.651 µM [falling, partial curve]	0.411 µM [falling, single point]
CN(CC(=O)Nc1cccc(F)c1)C(=O)c1cn2ccccc2n1	14.1	0.164 µM [rising, full curve, poor fit]	6.51 µM [falling, single point]
COC(/C=C/Nc1ccc(Cl)cc1)=C(C#N)C#N	-45.7	32.6 µM [falling, partial curve, poor fit]	
COc1ccc(NC(=O)CN(C)C(C)C(=O)NC(=O)NC2CCCCC2)cc1 (stereo not drawn)	2.31	0.13 µM [rising, full curve]	
CC(=O)Nc1ccc(-c2csc(NC(=O)C3CCN(S(=O)(=O)c4cccs4)CC3)n2)cc1	-30.7	5.8 µM [falling, single point]	29.1 µM [falling, single point]
